Data on two substances can be found in PMC5840266.

Sequences of proteins named here, by UniProt entry; tags and fusion partners are left off.
UniProt Q9ULT8: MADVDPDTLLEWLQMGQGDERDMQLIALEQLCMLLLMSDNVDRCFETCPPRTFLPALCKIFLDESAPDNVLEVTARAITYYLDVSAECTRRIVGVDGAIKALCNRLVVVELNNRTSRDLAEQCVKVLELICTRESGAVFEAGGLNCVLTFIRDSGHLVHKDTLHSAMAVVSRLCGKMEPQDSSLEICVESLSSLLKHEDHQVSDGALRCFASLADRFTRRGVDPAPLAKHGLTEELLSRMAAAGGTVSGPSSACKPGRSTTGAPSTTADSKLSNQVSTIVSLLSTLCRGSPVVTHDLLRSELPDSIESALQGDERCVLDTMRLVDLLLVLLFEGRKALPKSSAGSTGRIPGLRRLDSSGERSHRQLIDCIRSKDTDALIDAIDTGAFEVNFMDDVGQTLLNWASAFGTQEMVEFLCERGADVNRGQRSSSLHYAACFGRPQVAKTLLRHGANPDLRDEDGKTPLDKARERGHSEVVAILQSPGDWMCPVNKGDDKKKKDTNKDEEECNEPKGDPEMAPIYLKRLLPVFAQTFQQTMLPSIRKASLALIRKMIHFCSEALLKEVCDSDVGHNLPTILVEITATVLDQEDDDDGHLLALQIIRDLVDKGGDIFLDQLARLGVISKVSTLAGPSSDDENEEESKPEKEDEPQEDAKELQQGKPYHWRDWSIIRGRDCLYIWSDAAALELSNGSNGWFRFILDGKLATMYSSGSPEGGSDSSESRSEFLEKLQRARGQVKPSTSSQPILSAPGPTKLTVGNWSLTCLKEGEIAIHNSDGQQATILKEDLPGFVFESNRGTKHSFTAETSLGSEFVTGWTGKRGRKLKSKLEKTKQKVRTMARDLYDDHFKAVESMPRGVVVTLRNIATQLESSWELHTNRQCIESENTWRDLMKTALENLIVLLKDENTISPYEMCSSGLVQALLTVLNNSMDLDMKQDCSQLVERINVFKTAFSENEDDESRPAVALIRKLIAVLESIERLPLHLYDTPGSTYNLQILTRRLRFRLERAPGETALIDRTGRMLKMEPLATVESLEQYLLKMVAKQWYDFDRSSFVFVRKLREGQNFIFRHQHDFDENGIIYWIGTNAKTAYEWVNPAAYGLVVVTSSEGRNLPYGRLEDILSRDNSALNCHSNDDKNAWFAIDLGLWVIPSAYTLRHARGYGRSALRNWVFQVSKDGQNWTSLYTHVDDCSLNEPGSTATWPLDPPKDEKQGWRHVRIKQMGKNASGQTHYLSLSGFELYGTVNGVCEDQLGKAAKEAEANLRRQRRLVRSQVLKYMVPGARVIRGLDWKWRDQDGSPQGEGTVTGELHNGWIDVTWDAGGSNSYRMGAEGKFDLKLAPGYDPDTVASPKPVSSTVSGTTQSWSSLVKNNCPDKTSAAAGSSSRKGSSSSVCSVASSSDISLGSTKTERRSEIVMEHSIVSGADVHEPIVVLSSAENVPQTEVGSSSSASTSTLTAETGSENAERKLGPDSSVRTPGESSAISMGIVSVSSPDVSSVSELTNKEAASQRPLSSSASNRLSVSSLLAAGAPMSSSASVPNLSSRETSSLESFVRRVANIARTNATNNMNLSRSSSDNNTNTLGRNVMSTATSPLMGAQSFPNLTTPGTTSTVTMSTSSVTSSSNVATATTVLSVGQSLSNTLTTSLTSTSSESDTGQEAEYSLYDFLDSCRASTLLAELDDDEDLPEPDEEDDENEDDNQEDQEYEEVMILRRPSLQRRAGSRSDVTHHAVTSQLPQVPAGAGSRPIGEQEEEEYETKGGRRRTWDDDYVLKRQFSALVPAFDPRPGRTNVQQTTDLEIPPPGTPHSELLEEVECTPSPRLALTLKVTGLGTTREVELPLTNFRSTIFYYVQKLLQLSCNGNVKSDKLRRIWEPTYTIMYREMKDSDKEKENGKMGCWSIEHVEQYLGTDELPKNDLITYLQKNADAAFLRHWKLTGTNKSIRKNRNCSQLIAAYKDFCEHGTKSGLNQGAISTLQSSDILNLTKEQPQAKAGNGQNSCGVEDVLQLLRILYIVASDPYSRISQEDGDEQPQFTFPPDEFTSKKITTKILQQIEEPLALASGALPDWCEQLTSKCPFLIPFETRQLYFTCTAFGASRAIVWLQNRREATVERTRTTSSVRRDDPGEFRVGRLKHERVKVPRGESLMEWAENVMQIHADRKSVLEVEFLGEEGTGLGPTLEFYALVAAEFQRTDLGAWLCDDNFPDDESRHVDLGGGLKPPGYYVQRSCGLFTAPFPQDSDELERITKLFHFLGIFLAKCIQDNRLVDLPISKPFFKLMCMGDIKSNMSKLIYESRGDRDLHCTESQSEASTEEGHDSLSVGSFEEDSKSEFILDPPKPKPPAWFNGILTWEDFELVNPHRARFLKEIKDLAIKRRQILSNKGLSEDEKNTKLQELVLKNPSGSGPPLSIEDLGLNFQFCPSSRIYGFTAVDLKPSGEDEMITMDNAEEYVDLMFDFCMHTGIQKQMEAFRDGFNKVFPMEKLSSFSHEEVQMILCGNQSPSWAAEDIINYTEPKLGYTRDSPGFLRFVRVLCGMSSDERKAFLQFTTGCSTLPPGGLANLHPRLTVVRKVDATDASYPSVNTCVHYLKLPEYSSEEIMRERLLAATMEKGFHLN
UniProt O43242: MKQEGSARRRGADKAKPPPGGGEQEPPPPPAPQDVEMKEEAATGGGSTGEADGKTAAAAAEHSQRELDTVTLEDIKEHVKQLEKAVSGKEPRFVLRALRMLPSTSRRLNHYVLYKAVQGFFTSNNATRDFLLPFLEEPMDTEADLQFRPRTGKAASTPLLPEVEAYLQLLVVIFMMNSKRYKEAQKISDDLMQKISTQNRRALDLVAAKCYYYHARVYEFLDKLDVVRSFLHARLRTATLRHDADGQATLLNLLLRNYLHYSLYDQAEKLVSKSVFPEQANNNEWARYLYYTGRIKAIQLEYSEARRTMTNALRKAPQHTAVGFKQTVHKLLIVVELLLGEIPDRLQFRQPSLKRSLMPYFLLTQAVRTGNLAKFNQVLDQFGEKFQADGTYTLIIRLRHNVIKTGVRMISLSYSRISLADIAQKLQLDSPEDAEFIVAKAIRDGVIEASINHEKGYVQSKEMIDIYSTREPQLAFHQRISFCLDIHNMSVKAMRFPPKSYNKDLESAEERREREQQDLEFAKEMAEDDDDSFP
UniProt O00471: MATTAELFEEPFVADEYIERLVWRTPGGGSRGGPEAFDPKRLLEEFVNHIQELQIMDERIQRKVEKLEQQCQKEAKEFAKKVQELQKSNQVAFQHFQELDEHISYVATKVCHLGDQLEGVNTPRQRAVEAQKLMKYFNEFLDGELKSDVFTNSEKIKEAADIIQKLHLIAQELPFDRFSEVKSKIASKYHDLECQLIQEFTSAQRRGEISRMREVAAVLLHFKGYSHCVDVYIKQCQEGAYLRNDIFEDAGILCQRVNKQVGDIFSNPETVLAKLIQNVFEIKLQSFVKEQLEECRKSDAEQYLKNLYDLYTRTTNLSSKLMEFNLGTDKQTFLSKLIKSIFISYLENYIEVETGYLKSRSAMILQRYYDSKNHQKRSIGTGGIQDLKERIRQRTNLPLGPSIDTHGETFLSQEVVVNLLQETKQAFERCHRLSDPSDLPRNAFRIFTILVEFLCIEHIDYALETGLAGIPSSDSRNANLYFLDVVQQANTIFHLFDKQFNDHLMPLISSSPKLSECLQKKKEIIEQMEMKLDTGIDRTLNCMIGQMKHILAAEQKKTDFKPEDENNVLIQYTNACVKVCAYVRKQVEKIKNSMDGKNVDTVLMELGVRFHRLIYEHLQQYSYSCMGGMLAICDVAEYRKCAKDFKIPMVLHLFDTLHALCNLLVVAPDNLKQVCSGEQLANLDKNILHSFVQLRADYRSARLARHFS

No constants are given. Whether binding was seen depends on the method and setting. In cells and extracts the contact can be indirect. Some entries that bind do so weakly or less than the wild type.

The target of assay [1] is T1, RNF181 (human (endogenous in H9 hESCs)) (UniProt Q9P0P0).
T1 sequence: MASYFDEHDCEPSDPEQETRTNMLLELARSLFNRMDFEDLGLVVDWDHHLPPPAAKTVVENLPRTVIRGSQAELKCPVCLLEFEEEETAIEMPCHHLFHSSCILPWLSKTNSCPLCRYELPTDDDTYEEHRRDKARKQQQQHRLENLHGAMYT
Briefly: co-IP; co-IP with HECTD1, RNF181 and FLAG (control) antibodies in H9 hESCs followed by western blot against EXOC5 and PSMD3. On the technique in general: In western blotting, separated proteins are transferred to a membrane and probed.

Assay [2] has as its target HECTD1 (human (endogenous in H9 hESCs)) (UniProt Q9ULT8). The description is as above.

Regarding PSMD3 (from UniProt O43242 1-534), in assay [1], the binding entry is “binds”.
On to EXOC5 (from UniProt O00471 1-708), for which the binding entry in assay [2] is “binds”.
